The supplement of paper PMC12764529
± gives the half width of the 95% confidence interval. For many entries, trypsin and chymotrypsin gave values far apart.

Assays:
[1] = folding stability dG unfold from trypsin proteolysis; higher = more stable
Description: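 Folding stability of de novo designed mini-proteins (<80 aa, no Cys; designed by TrROS, TrMRF, ProteinMPNN and the joint model) was measured by cDNA display proteolysis with trypsin and chymotrypsin. Each protease was used at 11 concentrations in a threefold dilution series plus a no-protease condition. K50 was inferred by Bayesian fitting of sequencing counts, and dG unfold was derived against a sequence-predicted unfolded-state K50 (Tsuboyama et al. method). Sequences shown include variable-length N-terminal GS-type padding (SAGGSAGG...) inside a display construct carrying a PA tag. Rows were kept only if the AF2 dimer inter-PAE was >15, to exclude likely homo-oligomers.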

[2] = folding stability dG unfold from chymotrypsin proteolysis; higher = more stable
Summary of the method: (§1)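 Designed mini-proteins (under 80 residues, no cysteine) in a PA-tagged cDNA display construct were digested with trypsin and chymotrypsin. Each protease was used at 11 concentrations (threefold dilutions) plus a no-protease condition, followed by sequencing. K50 was inferred by Bayesian fitting of sequencing counts, and unfolding free energy was derived against a sequence-predicted unfolded-state K50 and a shared folded-state K50, per protease or combined. Only designs with AlphaFold2 dimer inter-PAE above 15 were kept.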

[3] = folding stability dG unfold (combined trypsin and chymotrypsin); higher = more stable
Summary of the method: as §1

Row | Sequence | folding stability dG unfold [1] | folding stability dG unfold [2] | folding stability dG unfold [3]
1 | SAGMTPEELRALARALLDAARAAGLREVTLTLRMSPEEVEALARALPPDVRIERLENGELRLTVRLPPASAG [r5_268_TrROS_Hall] | 0.756 ± 0.15 kcal/mol | 4.353 ± 0.031 kcal/mol | 3.99 ± 0.065 kcal/mol
2 | SMEITVYKLPDGTYIIKIYFPSDGKDITIPFSPEKDPEEVAKEVAEKLSKEKKDKPKSITIEDLPEPLPGSA [r9_1205_JUSTAS] | 1 ± 0.088 kcal/mol | 3.36 ± 0.052 kcal/mol | 3 ± 0.4 kcal/mol
3 | SAGGGWFPITFEFLFRMKFNGHWMWMLMEITIFIPIPPPPPTIPIPPDQAKKIEWDPNNGKYYVEPGSAGGS [r8_28_TrROS] | 1.62 ± 0.11 kcal/mol | 3.62 ± 0.067 kcal/mol | 2.95 ± 0.3 kcal/mol
4 | SSVQPGQTFEFEFDIPERPGEKLKVKIEIYYDPNSDEYKVKVTFTLYKNDSPSTSVVEMSLEEFEKFLKKSA [r9_71_JUSTAS] | 2.54 ± 0.06 kcal/mol | 5.86 ± 0.13 kcal/mol | 5.92 ± 0.22 kcal/mol
5 | SAGGKVKVVEIRYFPGTNTVEILVEDPGPYLATIRIPAAPDAPIEIDEDANFRVPDAPVVLGEVRPPSAGGS [r16_515_TrMRF] | 1.19 ± 0.027 kcal/mol | 0.843 ± 0.12 kcal/mol | 1.09 ± 0.072 kcal/mol
6 | SAGGSAGGKKKKKKKKYKVILLKVPPNMSEEEIKKLLEELLGIEKIEEIKIFKNKNGYLLVVIKSAGGSAGG [r6_515_TrROS_Hall] | 2.56 ± 0.18 kcal/mol | 5.08 ± 0.16 kcal/mol | 4.69 ± 0.21 kcal/mol
7 | SAGGSAGGKKPKVKTVTLTITREDGKTYTITYNAETGEITIEVNGKTITLSVEDLKNLTITIKPSAGGSAGG [r6_939_TrROS_Hall] | 1.77 ± 0.19 kcal/mol | 4.74 ± 0.16 kcal/mol | 4.22 ± 0.29 kcal/mol
8 | SAGGSAGGSAGMTITKTEDGTYRLTLTVTETLPNGSTVTRTVTLTVPLEDAEEILAALPPSAGGSAGGSAGG [r11_505_TrROS_Hall] | 2.52 ± 0.11 kcal/mol | 2.87 ± 0.032 kcal/mol | 2.72 ± 0.089 kcal/mol
9 | SAGGSMTLRLRVEVEVRTLTRREDGSLSLSRSRVELEVEVRLPPAPPPPPLTAEELAALLGDPELLSAGGSA [r2_340_TrROS_Hall] | 1.56 ± 0.04 kcal/mol | 4.021 ± 0.021 kcal/mol | 3.52 ± 0.096 kcal/mol
10 | SAGGMYIVKIEVKVDGKTIEIYLLVPEEDLEEIEEELKKKIAEELNADEVEIKIEVYRLNEDGEIEPISAGG [r13_877_TrROS_Hall] | 2.21 ± 0.26 kcal/mol | 5.17 ± 0.085 kcal/mol | 4.8 ± 0.23 kcal/mol
11 | SAGGSAKARVLDPHPTSSIVRIEFPGSGEVVEIPFTGTIGELEKYIRDLAEKYNFPIEVEISPPSESAGGSA [r2_161_TrMRF] | -0.564 ± 0.38 kcal/mol | 2.16 ± 0.039 kcal/mol | 1.8 ± 0.1 kcal/mol
12 | SNMYMFRIDIDVEVKPNPGNGMVMVEFKIKYEYYRYDPDGNMEPIMEMDRTIKVWMSPNQAKDLAKELLKSA [r9_642_TrROS] | 2.74 ± 0.18 kcal/mol | 5.17 ± 0.18 kcal/mol | 4.64 ± 0.26 kcal/mol
13 | SSVPVVEVKKAKIPNTGKEYIFVKVVLGGDNPEEAEKIAKKILEEEFGLKLEEMKVEKLENSYVVYYKIVGS [r1_337_TrMRF] | 1.56 ± 0.033 kcal/mol | 4.214 ± 0.032 kcal/mol | 3.6 ± 0.2 kcal/mol
14 | SAGGSAGGSAGKQPIEMWFMFPNGVAIVLRIKVDPPSPKAKIDAIEVVPVRDPDNGKWRFSAGGSAGGSAGG [r11_919_TrROS] | 0.566 ± 0.11 kcal/mol | 1.85 ± 0.1 kcal/mol | 1.38 ± 0.14 kcal/mol
15 | SAGGKMTYEIKLKLKVEVNGKKYEIEIKMKVEVEFDEKTGKYTVKIKEMSLEELKKLLPDKIKKIELSAGGS [r16_522_TrROS_Hall] | 1.66 ± 0.16 kcal/mol | 3.73 ± 0.038 kcal/mol | 3.09 ± 0.14 kcal/mol
16 | KKKKPKKKTIKLKLKEGEEIEIKLENGEIFKIKKIKKKNGKLYIEIERKDGKIEKIEIKVKTKEDLLKAIKS [r1_66_TrROS_Hall] | 0.441 ± 0.28 kcal/mol | 2.74 ± 0.26 kcal/mol | 1.74 ± 0.67 kcal/mol
17 | SAGGSAKKKTLTLEEILNLLKEAKEKNPDKTITLEITLKDGSTLTITIYPDGKVTITNEDGSKIELSAGGSA [r15_73_TrROS_Hall] | 1.23 ± 0.065 kcal/mol | 3.25 ± 0.12 kcal/mol | 2.85 ± 0.14 kcal/mol
18 | SAGGAEIKIEVEEKDGELVVKVTIKVPPGVTPEEIAAALKELFPEDVEVRIEKNEDGTLTVYVRFKPSAGGS [r8_255_TrROS_Hall] | 2.37 ± 0.082 kcal/mol | 4.5 ± 0.087 kcal/mol | 4.12 ± 0.094 kcal/mol
19 | SAGGMRLVIELEMTEEEARRLAEELARELAEELGLEVVRVEVRYDPETRRVTIVVEIRPAPPPPPPEESAGG [r13_669_TrROS_Hall] | 4.09 ± 0.25 kcal/mol | 2.08 ± 0.16 kcal/mol | 3.47 ± 0.22 kcal/mol
20 | SAGAREFELEAEFFLPDGYRVRVRVRLRVLPDGSVRAEPEVEIEPVPVPPPPRPVPVDPDDPDRPEAFSAGG [r19_12_TrMRF] | 1.14 ± 0.16 kcal/mol | 3.26 ± 0.072 kcal/mol | 2.74 ± 0.4 kcal/mol

Given as tab-separated lines: part of the list above
Row	Sequence	folding stability dG unfold [1]	folding stability dG unfold [2]	folding stability dG unfold [3]
15	SAGGKMTYEIKLKLKVEVNGKKYEIEIKMKVEVEFDEKTGKYTVKIKEMSLEELKKLLPDKIKKIELSAGGS [r16_522_TrROS_Hall]	1.66 ± 0.16 kcal/mol	3.73 ± 0.038 kcal/mol	3.09 ± 0.14 kcal/mol
16	KKKKPKKKTIKLKLKEGEEIEIKLENGEIFKIKKIKKKNGKLYIEIERKDGKIEKIEIKVKTKEDLLKAIKS [r1_66_TrROS_Hall]	0.441 ± 0.28 kcal/mol	2.74 ± 0.26 kcal/mol	1.74 ± 0.67 kcal/mol

(list continues)

Row | Sequence | folding stability dG unfold [1] | folding stability dG unfold [2] | folding stability dG unfold [3]
21 | SAMIEIEVGGKKITITYNKETNEYTITIYDKKTGKKVTITIPKENKNLTLEEILKKIKEAIKEGKKVKISAG [r14_157_TrROS_Hall] | 1.75 ± 0.058 kcal/mol | 5.04 ± 0.12 kcal/mol | 4.62 ± 0.23 kcal/mol
22 | SAGGSAGGSAMKVITLPENADINKVIEAVEAGSPILVKIVDPKSSKTTDLPLPSKEAVEKLSAGGSAGGSAG [r3_362_JUSTAS] | -0.468 ± 0.17 kcal/mol | -0.394 ± 0.18 kcal/mol | -0.33 ± 0.15 kcal/mol
23 | SAGGSAGGSAMEINEIVKETAKKGKNLTITVKLPDGSTVTITVTPDEDVPEDLEVLEVTVKSAGGSAGGSAG [r3_421_JUSTAS] | 0.344 ± 0.05 kcal/mol | 1.78 ± 0.038 kcal/mol | 1.4 ± 0.056 kcal/mol
24 | SAGGSAKKKTYTLKIRIYIYNENGEKIKEIEIEIKVKTKEEALEAIKKLIEELEKKGYKIEKIEIESAGGSA [r15_1054_TrROS_Hall] | 2.98 ± 0.23 kcal/mol | 5.45 ± 0.37 kcal/mol | 5.06 ± 0.65 kcal/mol
25 | SAGGGDRRFLRIEFEFETPEEAEEAVRRLVAALGLPPERARVTRLGSRPRRVGDRTLYRVDLLIELPSAGGS [r16_240_TrMRF] | 1.32 ± 0.017 kcal/mol | 3.897 ± 0.015 kcal/mol | 3.42 ± 0.048 kcal/mol
26 | SNPVLSVGRLEDAIVLAVFDPEAGTVHVLAINPDTGALAFATAKVKKIDPETGVIEVDFTVNAHPDAKVLPS [r1_234_TrMRF] | 1.44 ± 0.045 kcal/mol | 3.74 ± 0.084 kcal/mol | 3.11 ± 0.095 kcal/mol
27 | SAGGSAGGSAGGVPEDVIMSPVSTTLVEKEVLSTEVTPEGAPKTVEKVLIVEKTLEPLLSAGGSAGGSAGGS [r10_758_JUSTAS] | 0.0499 ± 0.05 kcal/mol | -0.853 ± 0.24 kcal/mol | -0.429 ± 0.29 kcal/mol
28 | SAGGKTVIIKAKSIEEALKAAIEEGKTVTIIVYDEETGRFYKVEIKVDKKTKKIEIVKVEVIPLPEEESAGG [r13_309_TrROS_Hall] | 1.65 ± 0.072 kcal/mol | 3.84 ± 0.079 kcal/mol | 3.35 ± 0.12 kcal/mol
29 | SAGGEIEIVVDSEEEAKALAEELRKAGYEVEVEEVDGKWVLRIRRPPPPPLTEEERAKLAENPELAKKSAGG [r13_8_TrROS_Hall] | 0.953 ± 0.092 kcal/mol | 4.51 ± 0.11 kcal/mol | 3.94 ± 0.26 kcal/mol
30 | SAGGSAGGSKLKIPIIRKFKPDEPLPTAEDVKAILEELGLDIKEVKVTYFPEYGYAIAEVEVSSAGGSAGGS [r12_1052_TrMRF] | 1.57 ± 0.033 kcal/mol | 1.24 ± 0.039 kcal/mol | 1.41 ± 0.067 kcal/mol
31 | SAGGSMSPDTVVESVEVTEVTVPVTLDDVPGAEVEVLTVTTTTTTVTPEGQLTSTTTTTTVPAAALSAGGSA [r2_448_JUSTAS] | 1.69 ± 0.056 kcal/mol | -0.376 ± 0.078 kcal/mol | 0.886 ± 0.044 kcal/mol
32 | SAKITITKNKNGYYAIEIDLPKDVKEIVVKNKKTNKTVKIIKKNGKLYIFAKTKEQIEEILKAILEGKPISA [r9_515_TrROS_Hall] | 2.45 ± 0.056 kcal/mol | 4.51 ± 0.056 kcal/mol | 3.96 ± 0.12 kcal/mol
33 | SAGGSAGGSAGGDPMKIVPIWIKFTITIPPDSPIMEKLGIDPEDVKIEFEFWMWVIVPDSAGGSAGGSAGGS [r10_82_TrROS] | 3.07 ± 0.12 kcal/mol | 5.18 ± 0.24 kcal/mol | 4.6 ± 0.22 kcal/mol
34 | SAGGSAGKIEIPLPELGEVREEPVPDTVRIEVRFPDGRVLEATVLKDDTIEIREKGTGKLVATLPASAGGSA [r15_656_TrMRF] | 1.44 ± 0.058 kcal/mol | 1.39 ± 0.043 kcal/mol | 1.44 ± 0.12 kcal/mol
35 | SAGGKELVVLEVEIRVETEEEREKALEEAERLAQELAELFPDLKIVRVEVEVEERDGERVVRVRIVVESAGG [r13_305_TrROS_Hall] | 4.4 ± 0.29 kcal/mol | 1.84 ± 0.12 kcal/mol | 4.24 ± 0.37 kcal/mol
36 | SAGGSAGGSAGGSMIEVKVGNKTASALVVPDPESDNPIVLIKVDDKWYTVDPNGNIVPLPSAGGSAGGSAGG [r11_732_JUSTAS] | -0.451 ± 0.038 kcal/mol | 1.65 ± 0.012 kcal/mol | 1.18 ± 0.065 kcal/mol
37 | SAGGSAGGSAGGSGPVPVTIKSVTTYPEKDVYKVETVPATPEPITITLSPEELSDVVILSAGGSAGGSAGGS [r4_51_JUSTAS] | -1.69 ± 0.57 kcal/mol | -0.437 ± 0.2 kcal/mol | -0.561 ± 0.19 kcal/mol
38 | SAMKPFPAKEAIEQILEEMEDMPLPPGQEEVEFQIRLPDDGAPVQISIERNPGKWKIEIYVGNKPIWITSAG [r14_199_TrROS] | 1.7 ± 0.082 kcal/mol | 2.43 ± 0.14 kcal/mol | 2.05 ± 0.12 kcal/mol
39 | SAGGNMWMVRVKIDDGKTFMITSPEDIEEYLKKKLGPNYKIKEVEWHRMPPPNGPPMPMHEFEIEVPSAGGS [r16_408_TrROS] | 1.28 ± 0.062 kcal/mol | 2.02 ± 0.1 kcal/mol | 1.76 ± 0.16 kcal/mol
40 | SAGGSAGGSKKTYTVTEVEVKEVDGKLYLVLKVKNKETGEEKTIVLSLEDLKKLKPGDTVEIKSAGGSAGGS [r12_382_TrROS_Hall] | 2.1 ± 0.21 kcal/mol | 5.05 ± 0.15 kcal/mol | 4.95 ± 0.24 kcal/mol
